Results are given in words; binding and its absence hold for the method and conditions named. In cells and extracts the contact can be indirect. Some entries that bind do so weakly or less than the wild type.
How the values were obtained:
[1] = target: T1, Rev‐erbα (human (endogenous in primary NP cells)) (UniProt P20393); experiment: condition: only NP cells cultured with rhIL1β for 2 days (heme depletion); co-IP; as a1, but NP cells exposed to rhIL1β for 2 days without hemin (heme depletion)
T1 sequence: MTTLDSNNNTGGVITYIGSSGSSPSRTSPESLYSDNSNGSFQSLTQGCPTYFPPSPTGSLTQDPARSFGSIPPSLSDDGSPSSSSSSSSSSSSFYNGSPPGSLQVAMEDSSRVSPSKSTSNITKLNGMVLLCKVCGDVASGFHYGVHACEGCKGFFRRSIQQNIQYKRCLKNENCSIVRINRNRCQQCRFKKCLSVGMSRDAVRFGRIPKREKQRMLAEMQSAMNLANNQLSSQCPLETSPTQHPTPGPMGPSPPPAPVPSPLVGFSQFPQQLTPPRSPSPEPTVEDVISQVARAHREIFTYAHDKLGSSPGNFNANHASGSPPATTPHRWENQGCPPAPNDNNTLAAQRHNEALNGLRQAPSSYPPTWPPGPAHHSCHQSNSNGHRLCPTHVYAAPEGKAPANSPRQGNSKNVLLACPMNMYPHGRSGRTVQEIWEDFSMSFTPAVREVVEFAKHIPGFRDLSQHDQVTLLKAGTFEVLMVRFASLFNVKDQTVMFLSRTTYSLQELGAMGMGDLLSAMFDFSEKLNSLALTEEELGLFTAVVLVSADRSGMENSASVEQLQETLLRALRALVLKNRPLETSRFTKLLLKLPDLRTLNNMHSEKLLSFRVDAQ

Chains of the proteins cited; added tags and fusions are not shown. Lines headed by an entry give the natural chain unless they say otherwise; changes in a name come on top.
UniProt O75376: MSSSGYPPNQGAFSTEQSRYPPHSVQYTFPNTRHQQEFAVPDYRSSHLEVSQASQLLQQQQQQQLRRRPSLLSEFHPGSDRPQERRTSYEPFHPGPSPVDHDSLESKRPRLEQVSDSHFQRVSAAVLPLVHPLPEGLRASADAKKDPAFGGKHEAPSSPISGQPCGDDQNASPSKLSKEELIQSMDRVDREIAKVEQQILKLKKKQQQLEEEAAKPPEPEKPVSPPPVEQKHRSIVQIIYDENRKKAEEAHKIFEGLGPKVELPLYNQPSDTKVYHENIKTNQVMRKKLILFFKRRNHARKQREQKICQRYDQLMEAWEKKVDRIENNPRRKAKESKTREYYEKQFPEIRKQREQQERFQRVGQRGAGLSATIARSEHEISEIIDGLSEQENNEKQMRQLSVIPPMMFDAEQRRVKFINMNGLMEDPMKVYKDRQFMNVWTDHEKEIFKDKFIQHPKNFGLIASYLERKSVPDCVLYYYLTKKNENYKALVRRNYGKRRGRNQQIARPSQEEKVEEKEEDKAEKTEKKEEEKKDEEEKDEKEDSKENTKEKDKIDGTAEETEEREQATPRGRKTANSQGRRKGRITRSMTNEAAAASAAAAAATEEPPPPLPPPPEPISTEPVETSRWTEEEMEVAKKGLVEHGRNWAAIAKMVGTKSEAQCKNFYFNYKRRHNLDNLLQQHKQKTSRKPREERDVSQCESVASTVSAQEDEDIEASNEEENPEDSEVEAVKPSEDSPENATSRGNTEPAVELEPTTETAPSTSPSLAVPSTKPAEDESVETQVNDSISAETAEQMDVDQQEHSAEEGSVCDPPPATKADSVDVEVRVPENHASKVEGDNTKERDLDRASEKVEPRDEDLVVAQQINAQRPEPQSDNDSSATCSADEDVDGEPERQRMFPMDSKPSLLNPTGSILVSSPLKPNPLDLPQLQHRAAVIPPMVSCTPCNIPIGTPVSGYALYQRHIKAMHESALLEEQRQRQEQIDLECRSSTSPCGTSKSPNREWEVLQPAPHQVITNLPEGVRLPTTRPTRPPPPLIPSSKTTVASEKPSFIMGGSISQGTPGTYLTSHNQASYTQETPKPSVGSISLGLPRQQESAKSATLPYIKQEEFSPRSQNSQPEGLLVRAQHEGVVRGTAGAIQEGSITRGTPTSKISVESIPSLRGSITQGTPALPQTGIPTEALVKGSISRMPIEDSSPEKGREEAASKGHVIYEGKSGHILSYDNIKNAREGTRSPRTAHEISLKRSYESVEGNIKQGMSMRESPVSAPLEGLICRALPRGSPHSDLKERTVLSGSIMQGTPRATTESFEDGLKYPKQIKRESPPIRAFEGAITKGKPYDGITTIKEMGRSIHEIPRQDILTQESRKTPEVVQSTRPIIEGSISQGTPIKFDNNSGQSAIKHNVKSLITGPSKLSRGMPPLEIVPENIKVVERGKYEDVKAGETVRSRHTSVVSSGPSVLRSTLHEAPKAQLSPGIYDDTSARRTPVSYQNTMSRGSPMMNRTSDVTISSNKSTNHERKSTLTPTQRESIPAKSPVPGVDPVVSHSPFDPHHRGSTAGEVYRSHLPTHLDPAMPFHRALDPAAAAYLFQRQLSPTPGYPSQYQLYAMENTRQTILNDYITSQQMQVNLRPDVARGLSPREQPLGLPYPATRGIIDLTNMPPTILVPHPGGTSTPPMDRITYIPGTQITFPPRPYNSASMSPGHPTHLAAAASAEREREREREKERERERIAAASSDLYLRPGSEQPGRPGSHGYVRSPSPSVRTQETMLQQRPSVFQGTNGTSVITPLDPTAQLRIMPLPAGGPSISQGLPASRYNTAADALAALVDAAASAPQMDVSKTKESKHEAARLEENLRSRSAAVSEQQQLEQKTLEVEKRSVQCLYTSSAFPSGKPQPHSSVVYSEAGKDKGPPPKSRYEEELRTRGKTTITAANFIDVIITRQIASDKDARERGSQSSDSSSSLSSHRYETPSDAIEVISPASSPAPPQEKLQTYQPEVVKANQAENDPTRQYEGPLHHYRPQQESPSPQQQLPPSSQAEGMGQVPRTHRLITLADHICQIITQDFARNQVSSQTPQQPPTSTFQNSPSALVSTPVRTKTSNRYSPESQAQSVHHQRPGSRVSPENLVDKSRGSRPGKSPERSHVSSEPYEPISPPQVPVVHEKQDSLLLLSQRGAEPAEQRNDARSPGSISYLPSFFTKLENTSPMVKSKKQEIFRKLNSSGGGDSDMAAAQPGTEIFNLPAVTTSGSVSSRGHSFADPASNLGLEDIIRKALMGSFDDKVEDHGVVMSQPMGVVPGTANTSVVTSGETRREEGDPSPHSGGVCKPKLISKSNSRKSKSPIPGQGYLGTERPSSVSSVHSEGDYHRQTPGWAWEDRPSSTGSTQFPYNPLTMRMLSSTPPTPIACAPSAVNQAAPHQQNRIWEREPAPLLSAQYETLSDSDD

[2] = target: T1, Rev‐erbα (human (endogenous in primary NP cells)); experiment: co-IP; IP with 1 μg Rev‐erbα antibody (control IgG) from whole lysates of dexamethasone-synchronised human primary NP cells, 4°C overnight, Protein G agarose beads, western blot; control and rhIL‐1β + hemin groups; lysis buffer 50 mM Tris pH 7.5, 150 mM NaCl, 2 mM EDTA, 1.5% NP40

## nuclear receptor co‐repressor (NCoR) and histone deacetylase 3 (HDAC3) complex (from UniProt O75376 1-2440; O15379 1-428)
[1]
  binding: no binding
[2]
  binding: binds

Reference: paper PMC11628727
